The source of these data is ChEMBL document CHEMBL1250504, “Antihypertensive and antiarrhythmic properties of a para-hydroxy[bis(ortho-morpholinylmethyl)]phenyl-1,4-DHP compound: comparison with other compounds of the same kind and relationship with logP values” (Eur J Med Chem, 2010).

The term logP denotes the decadic logarithm of the partition coefficient of the neutral form, usually between octanol and water. Read a high logP as higher lipophilicity.

The structures appear in SMILES notation.

A short description of this series: Octanol-water partition coefficient, log P of the compound.

`COC(=O)C1=C(C)NC(C)=C(C(=O)OC)C1c1ccccc1[N+](=O)[O-]` [NIFEDIPINE] had a logP of 2.4.
